The source of these data is paper PMC10216714, “NMR and Patch-Clamp Characterization of Yeast Mitochondrial Pyruvate Carrier Complexes” (Biomolecules, 2023).

Results are given in words; binding and its absence hold for the method and conditions named. Some results given as binding are weak or reduced against the parent protein; the word gives no strength. Tags and fused reporters may be left off the sequences shown.

The target of the assay is T1, MTSL-labelled Mpc1 monomer (MTSL on C87) (Saccharomyces cerevisiae), P53157.
T1 chain: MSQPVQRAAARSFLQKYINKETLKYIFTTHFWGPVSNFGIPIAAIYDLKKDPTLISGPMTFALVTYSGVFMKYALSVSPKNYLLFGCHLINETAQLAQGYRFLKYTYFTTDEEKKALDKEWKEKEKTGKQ
The assay is described as follows: paramagnetic relaxation enhancement (PRE) NMR; MTSL-labelled monomer co-refolded with 15N-labelled monomer; 1H-15N BEST-TROSY with and without vitamin C; 25 mM NaAc pH 6.0, 50 mM glutamic acid, 50 mM arginine, 10 mM β-ME, 1 mM EDTA, 1 mM DPC, 2 mM LDAO; 308 K, 850 MHz; both purified. Particulars: remark: other sources report otherwise.

B1: Saccharomyces cerevisiae mitochondrial pyruvate carrier 1 (Mpc1) with C-terminal 8×His-tag, P53157 1-130 (natural protein)
chain: MSQPVQRAAARSFLQKYINKETLKYIFTTHFWGPVSNFGIPIAAIYDLKKDPTLISGPMTFALVTYSGVFMKYALSVSPKNYLLFGCHLINETAQLAQGYRFLKYTYFTTDEEKKALDKEWKEKEKTGKQ
modifications: here or on the partner: MTSL spin label on C87
With B1, the binding entry is “binds”.
